Data taken from publication PMC7078224.
Results are given in words; binding and its absence hold for the method and conditions named. In cells and extracts the contact can be indirect. Some binding calls cover weakened binding; strength is not graded here. Where a sequence is shown, tags or fusion partners need not be part of it.

Target: T1, DDK-tagged ERRA (estrogen related receptor, alpha) (UniProt O08580)
T1 sequence: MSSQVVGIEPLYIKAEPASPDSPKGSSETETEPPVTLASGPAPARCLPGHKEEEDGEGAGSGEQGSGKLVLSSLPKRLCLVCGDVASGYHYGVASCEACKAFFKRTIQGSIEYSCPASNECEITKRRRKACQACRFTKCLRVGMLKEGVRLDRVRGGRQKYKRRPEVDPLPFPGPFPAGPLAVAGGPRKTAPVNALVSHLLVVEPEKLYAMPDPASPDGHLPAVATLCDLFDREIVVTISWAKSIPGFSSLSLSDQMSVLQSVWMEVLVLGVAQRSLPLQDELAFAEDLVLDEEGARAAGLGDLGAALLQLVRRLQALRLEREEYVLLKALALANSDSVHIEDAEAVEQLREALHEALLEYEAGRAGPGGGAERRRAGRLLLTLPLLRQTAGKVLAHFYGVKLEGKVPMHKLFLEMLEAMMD
Test: co-IP; a fraction of the FLAG-M2 immunoprecipitate of DDK-tagged ERRA from murine brown preadipocytes blotted with ERRA and FLII antibodies; rabbit IgG as control

B1: flightless I actin binding protein (FLII) (protein, UniProt Q9JJ28 1-1271)
chain: MEATGVLPFVRGVDLSGNDFKGGYFPENVKAMTSLRWLKLNRTGLCYLPEELAALQKLEHLSVSHNHLTTLHGELSSLPSLRAIVARANSLKNSGVPDDIFKLDDLSVLDLSHNQLTECPRELENAKNMLVLNLSHNGIDSIPNQLFINLTDLLYLDLSENRLESLPPQMRRLVHLQTLVLNGNPLLHAQLRQLPAMMALQTLHLRNTQRTQSNLPTSLEGLSNLSDVDLSCNDLTRVPECLYTLPSLRRLNLSSNQIAELSLCIDQWVHLETLNLSRNQLTSLPSAICKLTKLKKLYLNSNKLDFDGLPSGIGKLTSLEEFMAANNNLELIPESLCRCPKLKKLVLNKNRLVTLPEAIHFLTEIQVLDVRENPSLVMPPKPADRTAEWYNIDFSLQNQLRLAGASPATVAAAAAVGSGSKDPLARKMRLRRRKDSAQDVQAKQVLKGMSDVAQEKNKNQEESIDARAPGGKVRRWDQGLEKPRLDYSEFFTEDVGQLPGLTIWQIENFVPVLVEEAFHGKFYEADCYIVLKTFLDDSGSLNWEIYYWIGGEATLDKKACSAIHAVNLRNYLGAECRTVREEMGDESEEFLQVFDNDISYIEGGTASGFYTVEDTHYVTRMYRVYGKKNIKLEPVPLKGSSLDPRFVFLLDQGLDIYVWRGAQATLSNTTKARLFAEKINKNERKGKAEITLLVQGQEPPGFWDVLGGEPSEIKNHVPDDFWPPQPKLYKVGLGLGYLELPQINYKLSVEHKKRPKVELMPGMRLLQSLLDTRCVYILDCWSDVFIWLGRKSPRLVRAAALKLGQELCGMLHRPRHTVVSRSLEGTEAQVFKAKFKNWDDVLTVDYTRNAEAVLQGQGLSGKVKRDTEKTDQMKADLTALFLPRQPPMPLAEAEQLMEEWNEDLDGMEGFVLEGRKFTRLPEEEFGHFYTQDCYVFLCRYWVPVEYEEEEKTEDKEGKASAEAREGEEAAAEAEEKQPEEDFQCIVYFWQGREASNMGWLTFTFSLQKKFESLFPGKLEVVRMTQQQENPKFLSHFKRKFIIHRGKRKVTQGTLQPTLYQIRTNGSALCTRCIQINTDSSLLNSEFCFILKVPFESEDNQGIVYAWVGRASDPDEAKLAEDILNTMFDASYSKQVINEGEEPENFFWVGIGAQKPYDDDAEYMKHTRLFRCSNEKGYFAVTEKCSDFCQDDLADDDIMLLDNGQEVYMWVGTQTSQVEIKLSLKACQVYIQHTRSKEHERPRRLRLVRKGNEQRAFTRCFHAWSTFRQAPA
B1 was tested, and the binding was “binds”.
